About 22,000 (6.9%) of roughly 320,000 compounds were called active. The inconclusive results got no clear call from the source; some entries with a clear call stand among them for comparison. The call rests on the fitted dose curve; in most records, active means well fitted inhibition curve with a large enough effect; inconclusive means small, poorly fitted or top-dose-only effect, or another doubt; inactive means no such curve, though single readings can be large or run the other way. A potency beside an inconclusive call is a rough fit, not a confirmed value.
Assay: Primary qHTS for delayed death inhibitors of the malarial parasite plastid, 96 hour incubation
Conditions: P. falciparum luciferase reporter growth; series mostly up to 28.7 µM
How it was run: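 Parasite growth measured via integrated firefly luciferase reporter in P. falciparum. Infected erythrocytes at 2% hematocrit, 0.05% parasitemia final were treated 96 hours at 37 C under 5% CO2, and luminescence was read.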
Potency means the concentration at half of the fitted maximal effect.

Compound	Potency
O=C1NC[C@@H](Cc2cccc3ccccc23)N(CC2CCCCC2)C1=O	inconclusive: 3.7 µM [inhibitor, partial curve]
CC(=O)Nc1ccc(C(=O)OCCC(C)C)cc1	inactive
O=[N+]([O-])c1ccc(COc2ccc(-c3[nH]ncc3-c3ccccc3)c(O)c2)cc1	active: 6.57 µM
CN(C(=O)c1ccccc1Br)C1CCS(=O)(=O)C1 (centres undefined)	inactive
Cc1csc(NC(=O)c2ccncc2)n1	inactive
O=C(Nc1ccccc1)c1nc[nH]c1C(=O)N1CCN(c2ccccc2)CC1	inconclusive: 8.28 µM [inhibitor, single point]
Cc1cc(-c2nnc(SCC(=O)Nc3ccccc3C)n2N)n[nH]1	inconclusive: 18.5 µM [inhibitor, single point]
O=C1Nc2ccccc2N2CCCC12 (centres undefined)	inconclusive: 18.5 µM [inhibitor, single point]
COc1cc(CN2CCN(Cc3ccc4cc(F)ccc4n3)CC2CCO)cc(OC)c1 (centres undefined)	inconclusive: 11.7 µM [inhibitor, single point]
COc1ccc(CCN=C(N)NS(=O)(=O)c2ccc(F)cc2)cc1	inactive
COc1ccc2c(c1)CCc1c(C(=O)NCc3cccnc3)noc1-2	inactive
CCOC(=O)C1=C(C)C2C3C(=O)N(c4cc(C)ccc4C)C(=O)C3C1(C)C1C(=O)N(c3cc(C)ccc3C)C(=O)C21 (centres undefined)	inconclusive: 10.4 µM [inhibitor, single point]
COc1ccccc1CNS(=O)(=O)c1c(C)nc2sccn2c1=O	inconclusive: 16.5 µM [inhibitor, single point]
Cc1nnc(SCc2cccc([N+](=O)[O-])c2)s1	inconclusive: 9.28 µM [inhibitor, single point]
CCN(Cc1ccccc1)C(=O)CCNS(=O)(=O)c1ccc2c(c1)CC(C)N2C(C)=O (centres undefined)	inconclusive: 20.8 µM [inhibitor, partial curve, poor fit]
Oc1c(Cl)cc(Cl)cc1CNc1nc2ccccc2[nH]1	inconclusive: 13.1 µM [inhibitor, single point]
COc1ccc(C(=O)NC(=S)NNC(=O)CNC(=O)C2CCCCC2)cc1	inconclusive: 0.329 µM [inhibitor, full curve, poor fit]
Cn1c(=O)c(C(=O)COC(=O)c2cc(-c3ccco3)nc3ccccc23)c(N)n(CC2CC2)c1=O	active: 8.28 µM
CN(CCC#N)c1ccc(/C=C(\C#N)c2ccccn2)cc1	inactive
Cn1cnnc1SCC(=O)Nc1ncc(C(F)(F)F)cc1Cl	inactive
CC(C)CCNC(=O)CCn1nc(-c2ccc(Cl)cc2)ccc1=O	inconclusive: 2.94 µM [inhibitor, full curve]
O=C(CCN1C(=O)/C(=C/c2ccc(F)cc2)SC1=S)NC1CCS(=O)(=O)C1 (centres undefined)	inconclusive: 20.8 µM [inhibitor, partial curve, poor fit]
Clc1ccc(C2NCCc3[nH]cnc32)cc1 (centres undefined)	inconclusive: 18.5 µM [inhibitor, single point]
CN1CCC(N(C)C(=O)c2cc(=O)c3ccccc3o2)CC1	inactive
COc1c(Cl)cc(Cl)cc1/C=N/n1cnnc1	inconclusive: 0.37 µM [inhibitor, partial curve, poor fit]

Compound	Potency
COc1ccc(S(=O)(=O)N2c3ccc(Cl)cc3[C@](O)(c3ccccc3Cl)[C@@H]2C(=O)N2CCC[C@H]2C(N)=O)cc1OC	active: 9.53 µM
Cc1cc(Nc2ccc(Cl)cc2)n(-c2ccccc2)n1	inactive
COc1ccc(OC)c(C(c2nnnn2C2CCCC2)N2CCN(c3ccccc3F)CC2)c1 (centres undefined)	inconclusive: 18.5 µM [inhibitor, single point]
O=C(O)c1n[nH]c2ccccc12	inconclusive: 4.65 µM [inhibitor, partial curve, poor fit]
Cc1ccc(S(=O)(=O)N2CCN(C(=O)COC(=O)Cc3ccc(Cl)cc3)CC2)c(C)c1	inconclusive: 0.117 µM [inhibitor, full curve, poor fit]
COc1cc(CNC(=O)c2nc(Cn3nc(C)c(Br)c3C)no2)cc(OC)c1	inconclusive: 18.5 µM [inhibitor, single point]
O=S(=O)(NC1=NCCCCC1)c1ccc2ccccc2c1	inactive
Nc1ccc(C(=O)OCC(=O)Nc2ccc3c(c2)OCO3)cc1[N+](=O)[O-]	inactive
COc1ccccc1CCC(=O)Nc1ccc(OC)c(S(=O)(=O)N2CCCCC2)c1	inconclusive: 9.28 µM [inhibitor, single point]
O=C(NCCc1c[nH]c2ccccc12)C(=O)NCC1OCCN1S(=O)(=O)c1ccc(F)cc1 (centres undefined)	inconclusive: 18.5 µM [inhibitor, single point]
CC(=O)Nc1ccc(NC(=O)CSc2nnc3ccc(-c4cccnc4)nn23)cc1	inactive
Cc1c(Cl)c([N+](=O)[O-])nn1CC(=O)NC1CCCCC1	inconclusive: 1.85 µM [inhibitor, partial curve, poor fit]
CC1CCN(CCc2nc3cc(NC(=O)NC4CCCCC4)ccc3n2C)CC1	inconclusive: 16.5 µM [inhibitor, single point]
O=C(CCOc1ccccc1)Nc1ccccc1[N+](=O)[O-]	inactive
O=C(NCC1CCCCC1)c1ccc(Br)o1	inactive
O=C(Nc1ncnc2c1CCC2)C12CC3CC(CC(C3)C1)C2	inconclusive: 18.5 µM [inhibitor, single point]
Cc1cc(C(=O)Nc2nc(C)c(C(=O)N(C)C)s2)ccc1[N+](=O)[O-]	inconclusive: 11.7 µM [inhibitor, single point]
Cn1cc(CCC(=O)NCCCc2ccccc2)c2ccccc21	inactive
Cc1cc(NC(=O)Nc2ccc(F)cc2F)n(C)n1	inactive
CCN(CCn1cccn1)C(=O)c1ccc2nc(Cc3ccc(OC)cc3)oc2c1	inconclusive: 18.5 µM [inhibitor, single point]
CCOC(=O)c1c(NC(=O)/C=C/C(=O)O)sc(C)c1-c1ccc(F)cc1	inconclusive: 18.5 µM [inhibitor, partial curve, poor fit]
O=C(Cn1cncn1)NCc1cccc2ccccc12	inactive
CCS(=O)(=O)c1ccc(O)c(NC(=O)Nc2ccccc2OC)c1	inactive
NCC1CCC(C(=O)Oc2ccc(CCC(=O)O)cc2)CC1 (centres undefined)	inactive
COc1ccc(COC(=O)C2=C(C)NC(=O)NC2c2ccc(F)cc2)cc1 (centres undefined)	active: 2.94 µM

Compound	Potency
Cc1nnc(-c2ccc(Cl)cc2)[nH]c1=O	inconclusive: 13.1 µM [inhibitor, single point]
Cc1nc(SCC(=O)O)c2oc3ccccc3c2n1	inconclusive: 18.5 µM [inhibitor, single point]
O=C(CN1CCCc2ccccc21)NC(=O)NCc1ccccc1	inconclusive: 18.5 µM [inhibitor, single point]
Cc1cccc(C(C)C)c1NC(=O)CN1C(=O)NC2(CCc3ccccc32)C1=O (centres undefined)	inconclusive: 18.5 µM [inhibitor, single point]
CCc1ccccc1NC(=O)C1CCCN(c2nccc(C)n2)C1 (centres undefined)	inactive
CCOc1ccc2nc(NC(=O)NC3CCCCC3)sc2c1	inactive
CC(=O)Oc1ccc(Cl)cc1/C=C/c1ccc2ccccc2n1	inconclusive: 18.5 µM [inhibitor, single point]
Cc1cccc(NC(=S)NC2CC3CCC(C2)N3Cc2ccco2)c1C (centres undefined)	inconclusive: 18.5 µM [inhibitor, single point]
Cc1ccc(/C=C2\SC(=O)N(CCC(=O)N3CCN(C)CC3)C2=O)cc1	inconclusive: 14.7 µM [inhibitor, single point]
Cc1cccn2c(=O)c3cc(C(=O)N4CCCCC4C)sc3nc12 (centres undefined)	inactive
Nc1nc(Br)c2c(F)cccc2c1-c1ccccc1	inactive
CCCCn1c(N)c(N(CC(C)C)C(=O)CN(C)S(=O)(=O)c2ccc(NC(C)=O)cc2)c(=O)[nH]c1=O	inconclusive: 10.4 µM [inhibitor, partial curve]
CC(=O)NCC(=O)N(c1c(C)n(C)n(-c2ccccc2)c1=O)C1(C(=O)NC2CCCC2)CCCCC1	inconclusive: 9.28 µM [inhibitor, partial curve, poor fit]
CCOC(=O)CC(NCc1ccc(OC)c(OCC)c1)c1ccc(C)cc1 (centres undefined)	inconclusive: 18.5 µM [inhibitor, single point]
COc1ccc(OC2C(=O)N(Cc3ccc4c(c3)OCO4)C2c2cccs2)cc1 (centres undefined)	inactive
CCN1C(=O)[C@H]2[C@@H](c3ccc(-c4ccccc4)cc3)N[C@@](C)(C(=O)OC)[C@H]2C1=O	inconclusive: 16.5 µM [inhibitor, single point]
O=C(COc1coc(CN2CCc3ccccc3C2)cc1=O)Nc1ccccc1F	inactive
COc1ccc(N/C(N)=N/c2nc(CSc3nnc(C)s3)cc(=O)[nH]2)cc1	inactive
O=C(CSc1nc2nn(-c3ccccc3)c(=O)c-2c2n1CCCCC2)NCCc1ccccc1	inconclusive: 1.65 µM [inhibitor, full curve]
NC(=S)N/N=C/c1ccc(Br)o1	inactive
O=C(c1cc2ccccc2o1)N1CCCC1	inactive
CC(=O)Nc1cccc(/C(C)=N/NC(=O)c2ccc3c(c2)OCO3)c1	inactive
COc1ccc(NC(=O)CCCc2nnc3n(C)c(=O)c4sccc4n23)cc1	inconclusive: 2.62 µM [inhibitor, full curve]
CN1CC(=O)N(CCOc2ccccc2)C1=O	inconclusive: 18.5 µM [inhibitor, single point]

5 compounds picked at random from those above, as already listed:
Compound	Potency
Cc1nnc(-c2ccc(Cl)cc2)[nH]c1=O	inconclusive: 13.1 µM [inhibitor, single point]
CC(=O)NCC(=O)N(c1c(C)n(C)n(-c2ccccc2)c1=O)C1(C(=O)NC2CCCC2)CCCCC1	inconclusive: 9.28 µM [inhibitor, partial curve, poor fit]
COc1ccc(OC2C(=O)N(Cc3ccc4c(c3)OCO4)C2c2cccs2)cc1 (centres undefined)	inactive
CC(=O)Nc1cccc(/C(C)=N/NC(=O)c2ccc3c(c2)OCO3)c1	inactive
COc1ccc(N/C(N)=N/c2nc(CSc3nnc(C)s3)cc(=O)[nH]2)cc1	inactive

— PubChem BioAssay AID504834 (National Center for Advancing Translational Sciences (NCATS), 2011)
